Reference: US20260152559A1 (Janssen / Centocor, published 2026)
These are yes or no findings as the source states them, for the method shown. Some results given as binding are weak or reduced against the parent protein; the word gives no strength.

Amino acid sequences for entries named in this document (tags omitted). A change or cut given only in a name is not applied to a line headed by its entry.
UniProt P07766: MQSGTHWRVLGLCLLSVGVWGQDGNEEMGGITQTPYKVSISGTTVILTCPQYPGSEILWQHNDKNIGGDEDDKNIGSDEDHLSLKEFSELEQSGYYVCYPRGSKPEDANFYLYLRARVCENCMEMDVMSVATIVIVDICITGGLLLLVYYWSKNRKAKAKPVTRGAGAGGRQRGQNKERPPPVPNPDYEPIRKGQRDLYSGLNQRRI

What was measured:
[1] = molecular target: human CD3 on cells (Jurkat cells, primary human T cells) (human) (UniProt P07766); assay: flow cytometry; E. coli scFv supernatant on human T cells
[2] = molecular target: human CD3 on cells (Jurkat cells, primary human T cells) (human) (UniProt P07766); assay: flow cytometry, hybridoma supernatant on Jurkat cells
[3] = molecular target: human CD3 on cells (Jurkat cells, primary human T cells) (human) (UniProt P07766); assay: flow cytometry, hybridoma supernatant on primary human T cells, anti-mouse IgG Alexa-647
[4] = molecular target: human CD3 on cells (Jurkat cells, primary human T cells) (human) (UniProt P07766); assay: flow cytometry, hybridoma supernatant on primary pan T cells, anti-mouse IgG Alexa-647 detection
[5] = molecular target: human CD3 on cells (Jurkat cells, primary human T cells) (human) (UniProt P07766); assay: binding screen on Jurkat cells

Binder | binding [1] | further results
CD3W234-HL-E.c. (scFv) scFv: EVQLVESGGGLVKPGGSLRLSCAASGFTFSRYNMNWVRQAPGKGLEWVSSISTSSNYIYYADSVKGRFTFSRDNAKNSLDLQMSGLRAEDTAIYYCTRGWGPFDYWGQGTLVTVSSGTEGKSSGSGSESKSTDILLTQSPGILSVSPGERVSFSCRARQSIGTAIHWYQQRTNGSPRLLIKYASESISGIPSRFSGSGSGTDFTLTINSVESEDIADYYCQQSNSWPYTFGGGTKLEIKGPGGQHHHHHHGAYPYDVPDYAS | binds | –
clone 065_D03 (hybridoma supernatant) (antibody, V domains shown) VH: EVQLVESGGGLVKPGGSLRLSCAASGFTFSRYNMNWVRQAPGKGLEWVSSISTSSNYIYYADSVKGRFTFSRDNAKNSLDLQMSGLRAEDTAIYYCTRGWGPFDYWGQGTLVTVSS VL: DILLTQSPGILSVSPGERVSFSCRARQSIGTAIHWYQQRTNGSPRLLIKYASESISGIPSRFSGSGSGTDFTLTINSVESEDIADYYCQQSNSWPYTFGGGTKLEIK | – | binding [2]: binds; binding [3]: binds; binding [4]: binds
CD3B815 (antibody, human IgG1, kappa, V domains shown) VH: EVQLVESGGGLVKPGGSLRLSCAASGFTFSRYNMNWVRQAPGKGLEWVSSISTSSNYIYYADSVKGRFTFSRDNAKNSLDLQMSGLRAEDTAIYYCTRGWGPFDYWGQGTLVTVSS VL: DILLTQSPGILSVSPGERVSFSCRARQSIGTAIHWYQQRTNGSPRLLIKYASESISGIPSRFSGSGSGTDFTLTINSVESEDIADYYCQQSNSWPYTFGGGTKLEIKR | – | binding [5]: binds
CD3W238-HL-E.c. (scFv) scFv: EVQLVESGGGLVKPGGSLRLSCAASGFTFSRYNMNWVRQAPGKGLEWVSSISTSSNYIYYADSVKGRFTFSRDNAKNSLDLQMSGLRAEDTAIYYCTRGWGPFDYWGQGTLVTVSSGTEGKSSGSGSESKSTDIQMTQSPSSLSASVGDRVTITCRARQSIGTAIHWYQQKPGKAPKLLIYYASESISGVPSRFSGSGSGTDFTLTISSLQPEDFATYYCQQSNSWPYTFGQGTKLEIKGPGGQHHHHHHGAYPYDVPDYAS | binds | –
CD3W242-HL-E.c. (scFv) scFv: EVQLVESGGGLVKPGGSLRLSCAASGFTFSRYNMNWVRQAPGKGLEWVSSISTSSNYIYYADSVKGRFTFSRDNAKNSLDLQMSGLRAEDTAIYYCTRGWGPFDYWGQGTLVTVSSGTEGKSSGSGSESKSTDIQMTQSPSSLSASVGDRVTITCRARQSIGTAIHWYQQKPGKAPKLLIKYASESISGVPSRFSGSGSGTDFTLTISSLQPEDFATYYCQQSNSWPYTFGQGTKLEIKGPGGQHHHHHHGAYPYDVPDYAS | binds | –
CD3W243-HL-E.c. (scFv) scFv: EVQLVESGGGLVKPGGSLRLSCAASGFTFSRYNMNWVRQAPGKGLEWVSSISTSSNYIYYADSVKGRFTFSRDNAKNSLDLQMSGLRAEDTAIYYCTRGWGPFDYWGQGTLVTVSSGTEGKSSGSGSESKSTDIQMTQSPSSLSASVGDRVTITCRARQSIGTAIHWYQQKPGKAPKLLIKYASESISGVPSRFSGSGSGTDFTLTISSVQPEDFATYYCQQSNSWPYTFGQGTKLEIKGPGGQHHHHHHGAYPYDVPDYAS | binds | –

The next lines start with results.

binding [1] | Binder | further results
binds | CD3W248-HL-E.c. (scFv) scFv: EVQLVESGGGLVKPGGSLRLSCAASGFTFSRYNMNWVRQAPGKGLEWVSSISTSSNYIYYADSVKGRFTFSRDNAKNSLDLQMSGLRAEDTAIYYCTRGWGPFDYWGQGTLVTVSSGTEGKSSGSGSESKSTDILLTQSPGILSVSPGERVSFSCRARQSIGTAIHWYQQRTNGSPRLLIKYASESISGIPSRFSGSGSGTDFTLTINSVESEDIADYYCQQSGSWPYTFGGGTKLEIKGPGGQHHHHHHGAYPYDVPDYAS | –
binds | CD3W244-HL-E.c. (scFv) scFv: EVQLVESGGGLVKPGGSLRLSCAASGFTFSRYNMNWVRQAPGKGLEWVSSISTSSNYIYYADSVKGRFTFSRDNAKNSLDLQMSGLRAEDTAIYYCTRGWGPFDYWGQGTLVTVSSGTEGKSSGSGSESKSTDIQMTQSPSSLSASVGDRVTITCRARQSIGTAIHWYQQKPGKAPKLLIYYASESISGVPSRFSGSGSGTDFTLTISSVQPEDFATYYCQQSGSWPYTFGQGTKLEIKGPGGQHHHHHHGAYPYDVPDYAS | –
binds | CD3W246-HL-E.c. (scFv) scFv: EVQLVESGGGLVKPGGSLRLSCAASGFTFSRYNMNWVRQAPGKGLEWVSSISTSSNYIYYADSVKGRFTFSRDNAKNSLDLQMSGLRAEDTAIYYCTRGWGPFDYWGQGTLVTVSSGTEGKSSGSGSESKSTDIQMTQSPSSLSASVGDRVTITCRARQSIGTAIHWYQQKPGKAPKLLIKYASESISGVPSRFSGSGSGTDFTLTISSVQPEDFATYYCQQSGSWPYTFGQGTKLEIKGPGGQHHHHHHGAYPYDVPDYAS | –
binds | CD3W247-HL-E.c. (scFv) scFv: EVQLVESGGGLVKPGGSLRLSCAASGFTFSRYNMNWVRQAPGKGLEWVSSISTSSNYIYYADSVKGRFTFSRDNAKNSLDLQMSGLRAEDTAIYYCTRGWGPFDYWGQGTLVTVSSGTEGKSSGSGSESKSTDIQMTQSPSSLSASVGDRVTITCRARQSIGTAIHWYQQKPGKAPKLLIYYASESISGVPSRFSGSGSGTDFTLTISSLQPEDFATYYCQQSGSWPYTFGQGTKLEIKGPGGQHHHHHHGAYPYDVPDYAS | –
binds | CD3W245-HL-E.c. (scFv) scFv: EVQLVESGGGLVKPGGSLRLSCAASGFTFSRYNMNWVRQAPGKGLEWVSSISTSSNYIYYADSVKGRFTFSRDNAKNSLDLQMSGLRAEDTAIYYCTRGWGPFDYWGQGTLVTVSSGTEGKSSGSGSESKSTDIQMTQSPSSLSASVGDRVTITCRARQSIGTAIHWYQQKPGKAPKLLIKYASESISGVPSRFSGSGSGTDFTLTISSLQPEDFATYYCQQSGSWPYTFGQGTKLEIKGPGGQHHHHHHGAYPYDVPDYAS | –
